PubChem BioAssay AID1259425, University of Nebraska Medical Center | 2018

- Aim: 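Compare each knockdown with KSR1 silencing using changes in marker transcripts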 (primary screen)
- Cells: HCT116 human colon cancer cells
- Reagents: siRNA pool against human genes, 50 nM siRNA
- Detection: 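After 50 nM siRNA pool, branched-DNA assay measures six marker transcripts per well, minus blank, normalised to the geometric mean of two housekeeping transcripts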
- Direction: BNIP3L mRNA: higher = more BNIP3L transcript after knockdown; NDRG1 mRNA: higher = more NDRG1 transcript after knockdown; BNIP3 mRNA: higher = more BNIP3 transcript after knockdown; ALDOC mRNA: higher = more ALDOC transcript after knockdown; ACSL5 mRNA: higher = more ACSL5 transcript after knockdown
The deposit covers about 14,000 reagents; this is a part drawn at random. Not given: the time to read-out.

Gene	BNIP3L mRNA, set 1	NDRG1 mRNA, set 1	BNIP3 mRNA, set 1	ALDOC mRNA, set 1	ACSL5 mRNA, set 1
GLT8D2	0.249	0.428	0.371	0.166	0.308
SLC13A2	0.147	0.626	0.326	0.0371	0.282
ARL14	0.0765	0.218	0.319	0.0156	0.104
BRMS1L	0.152	0.321	0.24	0.153	0.539
RBBP9	0.187	0.346	0.382	0.0233	0.248
GTF2H2	0.0574	0.467	0.22	0.0136	0.19
POLR1G	0.0764	0.259	0.302	0.0528	0.168
B3GNT2	0.0804	0.324	0.295	0.042	0.199
RERG	0.0724	0.391	0.254	0.0313	0.38
DNAJB9	0.0981	0.152	0.219	0.0237	0.12
SNTG2	0.141	0.267	0.264	0.00832	0.127
GNL3LP1	0.131	0.114	0.244	0.0182	0.17
IL22RA1	0.0988	0.0824	0.293	0.0248	0.12
C1QA	0.191	0.254	0.348	0.0375	0.34
TENM2	0.323	0.159	0.24	0.101	0.167
LNX1	0.0366	0.0943	0.224	0.025	0.19
PRKD3	0.254	0.327	0.609	-0.00199	0.475
DTYMK	0.0805	0.225	0.345	0.00487	0.342
KLK10	0.474	0.588	0.436	0.0656	0.243
EPHX1	0.0843	0.0829	0.262	0.0171	0.263
CCDC170	0.117	0.44	0.294	0.0211	0.17
MCM7	0.0727	0.113	0.265	0.0221	0.142
H3C11	0.0606	0.123	0.295	0.0105	0.129
TRMT61B	0.801	2.42	2.61	0.279	0.167
TDP2	0.0897	0.092	0.209	0.0144	0.129

Quoted from the entries so far, 7 entries:
Gene	BNIP3L mRNA, set 1	NDRG1 mRNA, set 1	BNIP3 mRNA, set 1	ALDOC mRNA, set 1	ACSL5 mRNA, set 1
GNL3LP1	0.131	0.114	0.244	0.0182	0.17
IL22RA1	0.0988	0.0824	0.293	0.0248	0.12
C1QA	0.191	0.254	0.348	0.0375	0.34
TENM2	0.323	0.159	0.24	0.101	0.167
LNX1	0.0366	0.0943	0.224	0.025	0.19
PRKD3	0.254	0.327	0.609	-0.00199	0.475
DTYMK	0.0805	0.225	0.345	0.00487	0.342

Next records:
Gene	BNIP3L mRNA, set 1	NDRG1 mRNA, set 1	BNIP3 mRNA, set 1	ALDOC mRNA, set 1	ACSL5 mRNA, set 1
CORO7	0.236	0.409	0.51	0.0567	0.348
WWTR1	0.0986	0.145	0.329	0.0225	0.178
NCSTN	0.12	0.284	0.537	0.123	0.236
GABRA2	0.0319	0.158	0.205	0.0188	0.112
NKX2-2	0.187	0.186	0.406	0.0407	0.495
FUBP1	0.166	0.257	0.349	0.00255	0.262
BASP1	0.0743	0.225	0.301	0.0275	0.0944
ZNF529	0.737	3.53	3.62	0.561	0.198
HNRNPDL	0.141	0.412	0.355	0.0464	0.14
PPDPF	0.0824	0.278	0.285	0.0352	0.444
MXI1	0.157	0.0561	0.32	0.00915	0.122
ZBED4	0.0956	0.154	0.188	0.0555	0.225
MMP28	0.105	0.115	0.264	0.0377	0.302
TMX1	0.128	0.291	0.258	0.026	0.327
PVALB	0.0667	0.5	0.0963	0.0353	0.0389
MLF1	0.148	0.0433	0.379	0.0182	0.134
LRRN1	0.11	0.491	0.153	0.0492	0.0439
DKFZP586K1520 (retired record)	0.146	0.643	0.563	0.039	0.372
FRMD1	0.264	0.39	0.408	0.082	0.353
RASIP1	0.429	1.3	0.402	0.0349	0.495
ZDHHC9	0.14	0.0992	0.293	0.0197	0.117
ESPN	0.321	0.684	0.508	0.177	0.593
ZNF446	0.0845	0.357	0.327	0.0313	0.263
HCG9	0.162	0.217	0.306	0.0262	0.156
SMN2	0.107	0.172	0.339	0.0086	0.128
